Data: article PMC12540712
Residue numbers refer to the chain shown, from its start. No constants are given. Whether binding was seen depends on the method and setting. Binding seen in cells or lysates may run through a third protein. Some entries that bind do so weakly or less than the wild type. For part of these data: Sequences can lack the tags named with a protein.

Amino acid sequences for entries named in this document (tags omitted). A change or cut given only in a name is not applied to a line headed by its entry.
UniProt P28340: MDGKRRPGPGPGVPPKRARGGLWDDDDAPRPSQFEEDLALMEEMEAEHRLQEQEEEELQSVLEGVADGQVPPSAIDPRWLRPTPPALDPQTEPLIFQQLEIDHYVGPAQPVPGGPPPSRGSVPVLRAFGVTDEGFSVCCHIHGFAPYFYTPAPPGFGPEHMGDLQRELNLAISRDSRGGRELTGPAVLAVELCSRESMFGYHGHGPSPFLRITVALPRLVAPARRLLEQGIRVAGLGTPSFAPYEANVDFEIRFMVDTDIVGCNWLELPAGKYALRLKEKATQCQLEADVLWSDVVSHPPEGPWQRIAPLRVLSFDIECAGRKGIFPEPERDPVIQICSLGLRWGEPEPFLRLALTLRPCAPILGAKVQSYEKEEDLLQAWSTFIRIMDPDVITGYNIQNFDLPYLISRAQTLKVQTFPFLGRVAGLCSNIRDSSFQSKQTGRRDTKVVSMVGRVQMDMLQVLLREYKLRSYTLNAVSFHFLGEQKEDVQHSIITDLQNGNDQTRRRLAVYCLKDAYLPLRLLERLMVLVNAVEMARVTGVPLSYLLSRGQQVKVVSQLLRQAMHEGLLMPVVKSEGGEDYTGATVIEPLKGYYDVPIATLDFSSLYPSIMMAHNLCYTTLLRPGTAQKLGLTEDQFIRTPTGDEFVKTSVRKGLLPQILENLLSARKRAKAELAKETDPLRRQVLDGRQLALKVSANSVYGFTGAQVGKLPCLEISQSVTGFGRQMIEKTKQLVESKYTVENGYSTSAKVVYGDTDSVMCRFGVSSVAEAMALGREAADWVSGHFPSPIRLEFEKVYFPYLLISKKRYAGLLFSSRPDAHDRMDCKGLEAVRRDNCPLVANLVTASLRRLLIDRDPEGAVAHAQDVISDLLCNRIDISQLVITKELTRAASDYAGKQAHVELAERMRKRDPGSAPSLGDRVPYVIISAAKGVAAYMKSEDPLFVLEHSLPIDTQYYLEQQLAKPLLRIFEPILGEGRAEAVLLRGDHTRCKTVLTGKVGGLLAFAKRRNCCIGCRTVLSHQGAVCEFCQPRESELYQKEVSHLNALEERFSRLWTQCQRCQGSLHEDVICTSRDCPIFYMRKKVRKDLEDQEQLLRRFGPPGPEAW

Assays:
[1] = target: T1, And-1 T826A mutant (human) (UniProt O75717); assay: co-IP; p125 with WT And-1 or T826A mutant; set-up shown only in Supplementary Fig. 3H
T1 sequence: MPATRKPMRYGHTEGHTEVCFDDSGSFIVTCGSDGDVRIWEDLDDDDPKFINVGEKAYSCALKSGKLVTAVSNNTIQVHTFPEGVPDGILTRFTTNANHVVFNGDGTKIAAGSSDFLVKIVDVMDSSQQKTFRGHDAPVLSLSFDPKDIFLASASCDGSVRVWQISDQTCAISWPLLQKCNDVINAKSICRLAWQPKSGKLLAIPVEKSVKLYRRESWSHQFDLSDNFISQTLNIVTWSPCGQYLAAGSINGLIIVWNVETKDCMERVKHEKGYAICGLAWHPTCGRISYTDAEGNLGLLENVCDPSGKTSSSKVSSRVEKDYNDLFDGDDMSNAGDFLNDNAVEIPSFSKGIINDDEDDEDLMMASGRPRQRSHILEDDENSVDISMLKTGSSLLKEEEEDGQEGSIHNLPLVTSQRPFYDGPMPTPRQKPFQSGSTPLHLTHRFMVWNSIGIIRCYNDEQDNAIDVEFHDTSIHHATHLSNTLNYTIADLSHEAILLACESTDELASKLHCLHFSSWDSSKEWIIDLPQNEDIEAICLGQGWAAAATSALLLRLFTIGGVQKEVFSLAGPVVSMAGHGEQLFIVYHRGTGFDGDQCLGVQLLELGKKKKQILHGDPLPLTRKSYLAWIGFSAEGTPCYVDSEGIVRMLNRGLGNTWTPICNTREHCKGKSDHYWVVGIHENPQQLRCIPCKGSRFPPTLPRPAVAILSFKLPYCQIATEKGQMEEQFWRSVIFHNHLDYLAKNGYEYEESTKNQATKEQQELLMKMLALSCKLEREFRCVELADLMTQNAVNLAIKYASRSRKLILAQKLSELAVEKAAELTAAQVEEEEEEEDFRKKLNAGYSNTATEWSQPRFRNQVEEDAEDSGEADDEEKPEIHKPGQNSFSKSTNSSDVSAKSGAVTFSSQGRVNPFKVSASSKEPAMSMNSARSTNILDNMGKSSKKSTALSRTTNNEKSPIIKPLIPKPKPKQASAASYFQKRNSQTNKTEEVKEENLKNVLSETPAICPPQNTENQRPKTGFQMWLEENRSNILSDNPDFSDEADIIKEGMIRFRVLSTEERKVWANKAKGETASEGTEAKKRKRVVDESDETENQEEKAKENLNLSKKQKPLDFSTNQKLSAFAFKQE

[2] = target: T2, FLAG-And-1, full-length And-1 (FL, 1–1129) (human) (UniProt O75717); assay: as above
T2 sequence: T1 sequence with A826T

[3] = target: T3, endogenous And-1 (human (endogenous in HEK293T)) (UniProt O75717); assay: co-IP; endogenous And-1 in HEK293T cells, with or without UVB; protein A/G beads coupled with antibody, 4 °C overnight; 20 mM Tris-HCl pH 8.0, 100 mM NaCl, 1 mM EDTA, 0.5% NP-40, 10 mM NaF
T3 sequence: T1 sequence with A826T

- binding [1]: binds
- binding [2]: binds
- binding [3]: binds
Substance: catalytic subunit of DNA polymerase δ (p125) (from UniProt P28340 1-1107)
